According to publication PMC6307885:
These are yes or no findings as the source states them, for the method shown. Some binding calls cover weakened binding; strength is not graded here.

By UniProt entry, the sequences of proteins in these tests, tags left out.
UniProt Q9SAD4: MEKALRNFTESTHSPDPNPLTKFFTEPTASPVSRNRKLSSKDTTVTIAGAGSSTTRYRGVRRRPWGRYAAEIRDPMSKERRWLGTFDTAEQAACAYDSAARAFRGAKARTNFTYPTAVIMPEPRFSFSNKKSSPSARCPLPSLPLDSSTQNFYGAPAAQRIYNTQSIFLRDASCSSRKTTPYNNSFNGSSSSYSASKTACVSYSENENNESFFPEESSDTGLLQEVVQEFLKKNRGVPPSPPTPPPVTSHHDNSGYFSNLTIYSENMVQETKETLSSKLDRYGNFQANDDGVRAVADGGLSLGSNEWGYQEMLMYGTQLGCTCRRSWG
UniProt Q9FYK5: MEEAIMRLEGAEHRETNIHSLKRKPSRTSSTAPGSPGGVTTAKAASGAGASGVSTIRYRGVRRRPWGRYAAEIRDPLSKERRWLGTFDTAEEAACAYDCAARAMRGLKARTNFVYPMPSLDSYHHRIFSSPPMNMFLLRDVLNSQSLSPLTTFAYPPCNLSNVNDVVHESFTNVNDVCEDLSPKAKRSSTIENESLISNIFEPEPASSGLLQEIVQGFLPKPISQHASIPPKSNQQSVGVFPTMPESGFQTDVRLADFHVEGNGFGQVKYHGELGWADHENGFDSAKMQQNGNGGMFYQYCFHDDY

Legend:
[1] = target: BD-REV (full-length REV fused to the binding domain of GAL4) (Arabidopsis thaliana) (UniProt Q9SE43); assay: yeast three-hybrid; yeast AH109; AD and BD fusions with conditional expression of a third (bridge) protein; growth and relative β-galactosidase activity before and after induction; 30°C
[2] = target: T1, REV protein, purified, used in EMSA (Arabidopsis thaliana) (UniProt Q9SE43); assay: native gel or EMSA; supershift with biotin-labeled fragment 1 of the STM promoter; 2 µg DRN and ZPR3, 1 µg REV; 25°C, 20 min; 10% native polyacrylamide gel; both purified
T1 sequence: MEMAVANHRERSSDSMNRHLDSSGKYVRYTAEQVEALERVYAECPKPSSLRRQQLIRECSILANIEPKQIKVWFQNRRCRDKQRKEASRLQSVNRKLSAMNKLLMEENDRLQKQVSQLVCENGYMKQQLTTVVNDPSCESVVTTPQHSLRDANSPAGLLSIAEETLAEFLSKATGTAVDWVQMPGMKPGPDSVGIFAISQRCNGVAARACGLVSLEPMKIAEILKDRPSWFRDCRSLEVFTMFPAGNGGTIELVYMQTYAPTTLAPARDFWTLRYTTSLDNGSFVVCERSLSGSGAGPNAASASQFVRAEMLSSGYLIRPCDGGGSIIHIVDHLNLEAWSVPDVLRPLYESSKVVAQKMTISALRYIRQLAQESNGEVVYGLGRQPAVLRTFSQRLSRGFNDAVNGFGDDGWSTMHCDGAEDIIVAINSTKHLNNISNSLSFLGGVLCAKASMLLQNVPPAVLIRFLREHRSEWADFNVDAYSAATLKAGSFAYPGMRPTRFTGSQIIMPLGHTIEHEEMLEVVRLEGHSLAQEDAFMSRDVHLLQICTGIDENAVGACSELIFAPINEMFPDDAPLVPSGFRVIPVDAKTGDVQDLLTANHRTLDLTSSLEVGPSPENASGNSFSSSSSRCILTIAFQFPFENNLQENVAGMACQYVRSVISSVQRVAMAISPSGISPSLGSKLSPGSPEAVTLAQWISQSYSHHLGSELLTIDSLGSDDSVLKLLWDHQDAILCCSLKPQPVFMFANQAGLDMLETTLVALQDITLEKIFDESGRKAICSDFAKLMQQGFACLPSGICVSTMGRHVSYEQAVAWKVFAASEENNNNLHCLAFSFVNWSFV

[3] = target: BD-REV (full-length REV fused to the binding domain of GAL4) (Arabidopsis thaliana) (UniProt Q9SE43); assay: two-hybrid; GAL4 AD and BD fusions in yeast; growth on SD-Leu-Trp-His-Ade plates; 100 mM 3-AT in the selection medium

Substance | binding [1] | binding [2] | binding [3]
DRN expressed as the third protein in the yeast three-hybrid assay (pB-REV-DRN) (from UniProt Q9SAD4 1-328) | binds |  | 
DRN protein, purified, used in EMSA (from UniProt Q9SAD4 1-328) |  | binds | 
DRNL expressed as the third protein in the yeast three-hybrid assay (pB-REV-DRNL) (from UniProt Q9FYK5 1-306) | binds |  | 
AD-DRN (full-length DRN fused to the activation domain of GAL4) (from UniProt Q9SAD4 1-328) | binds |  | binds
AD-DRNL (full-length DRNL fused to the activation domain of GAL4) (from UniProt Q9FYK5 1-306) | binds |  | binds
